Test results published in paper PMC4429374.
These are yes or no findings as the source states them, for the method shown. In cells and extracts the contact can be indirect. Some entries that bind do so weakly or less than the wild type. For some of these results: Where a sequence is shown, tags or fusion partners need not be part of it.

What was measured:
[1] = molecular target: T1, His-tagged p73 (human (cDNA from MCF-7)) (UniProt O15350); assay: co-IP; cells cotransfected with Flag-tagged Restin and His-tagged p73; lysed in RIPA buffer; immunoprecipitated with anti-Flag or anti-His antibody (mouse IgG as control) and protein G-Sepharose, 4°C; blotted with His or Flag antibodies
T1 sequence: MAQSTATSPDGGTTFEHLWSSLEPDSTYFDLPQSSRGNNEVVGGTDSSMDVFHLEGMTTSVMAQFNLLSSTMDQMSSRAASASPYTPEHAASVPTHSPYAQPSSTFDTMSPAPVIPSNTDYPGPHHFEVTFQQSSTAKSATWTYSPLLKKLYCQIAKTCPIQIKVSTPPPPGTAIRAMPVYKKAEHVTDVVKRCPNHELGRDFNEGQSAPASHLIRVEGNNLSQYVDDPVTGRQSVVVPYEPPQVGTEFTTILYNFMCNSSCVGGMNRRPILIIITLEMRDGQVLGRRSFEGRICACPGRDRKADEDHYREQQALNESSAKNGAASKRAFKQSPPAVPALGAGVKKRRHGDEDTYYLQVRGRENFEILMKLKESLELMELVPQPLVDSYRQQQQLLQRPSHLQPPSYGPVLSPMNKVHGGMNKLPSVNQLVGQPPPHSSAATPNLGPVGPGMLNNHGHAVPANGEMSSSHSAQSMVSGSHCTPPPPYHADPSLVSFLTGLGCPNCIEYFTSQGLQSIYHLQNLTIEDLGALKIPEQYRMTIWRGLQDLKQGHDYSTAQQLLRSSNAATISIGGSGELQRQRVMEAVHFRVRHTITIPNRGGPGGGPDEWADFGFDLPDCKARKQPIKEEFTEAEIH

[2] = molecular target: T2, Flag-tagged Restin (human (cDNA from MCF-7)) (UniProt Q9H213); assay: as above
T2 sequence: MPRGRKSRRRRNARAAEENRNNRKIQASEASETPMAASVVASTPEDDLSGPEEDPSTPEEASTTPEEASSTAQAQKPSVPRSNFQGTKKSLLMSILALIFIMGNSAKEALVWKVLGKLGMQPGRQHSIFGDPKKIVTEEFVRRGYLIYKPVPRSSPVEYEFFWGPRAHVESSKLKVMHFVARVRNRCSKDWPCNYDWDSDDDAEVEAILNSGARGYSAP

[3] = molecular target: T3, Restin (endogenous) (human (endogenous in MCF-7)) (UniProt Q9H213); assay: co-IP; endogenous proteins; MCF-7 cell extracts immunoprecipitated with mouse IgG or anti-Restin, anti-p73 or anti-p53 antibody, then blotted
T3 sequence: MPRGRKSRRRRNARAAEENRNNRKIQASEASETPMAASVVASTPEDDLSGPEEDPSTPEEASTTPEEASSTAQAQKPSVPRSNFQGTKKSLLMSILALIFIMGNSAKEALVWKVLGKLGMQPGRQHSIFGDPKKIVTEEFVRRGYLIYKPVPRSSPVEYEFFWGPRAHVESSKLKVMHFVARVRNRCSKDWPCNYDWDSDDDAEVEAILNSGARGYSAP

[4] = molecular target: p53 (endogenous) (human (endogenous in MCF-7)) (UniProt P04637); assay: as above

B1: Flag-tagged Restin (protein, UniProt Q9H213 1-219)
chain: MPRGRKSRRRRNARAAEENRNNRKIQASEASETPMAASVVASTPEDDLSGPEEDPSTPEEASTTPEEASSTAQAQKPSVPRSNFQGTKKSLLMSILALIFIMGNSAKEALVWKVLGKLGMQPGRQHSIFGDPKKIVTEEFVRRGYLIYKPVPRSSPVEYEFFWGPRAHVESSKLKVMHFVARVRNRCSKDWPCNYDWDSDDDAEVEAILNSGARGYSAP
binding [1]: binds

B2: His-tagged p73 (protein, UniProt O15350 1-636)
chain: MAQSTATSPDGGTTFEHLWSSLEPDSTYFDLPQSSRGNNEVVGGTDSSMDVFHLEGMTTSVMAQFNLLSSTMDQMSSRAASASPYTPEHAASVPTHSPYAQPSSTFDTMSPAPVIPSNTDYPGPHHFEVTFQQSSTAKSATWTYSPLLKKLYCQIAKTCPIQIKVSTPPPPGTAIRAMPVYKKAEHVTDVVKRCPNHELGRDFNEGQSAPASHLIRVEGNNLSQYVDDPVTGRQSVVVPYEPPQVGTEFTTILYNFMCNSSCVGGMNRRPILIIITLEMRDGQVLGRRSFEGRICACPGRDRKADEDHYREQQALNESSAKNGAASKRAFKQSPPAVPALGAGVKKRRHGDEDTYYLQVRGRENFEILMKLKESLELMELVPQPLVDSYRQQQQLLQRPSHLQPPSYGPVLSPMNKVHGGMNKLPSVNQLVGQPPPHSSAATPNLGPVGPGMLNNHGHAVPANGEMSSSHSAQSMVSGSHCTPPPPYHADPSLVSFLTGLGCPNCIEYFTSQGLQSIYHLQNLTIEDLGALKIPEQYRMTIWRGLQDLKQGHDYSTAQQLLRSSNAATISIGGSGELQRQRVMEAVHFRVRHTITIPNRGGPGGGPDEWADFGFDLPDCKARKQPIKEEFTEAEIH
binding [2]: binds

B3: p73 (endogenous) (protein, UniProt O15350 1-636)
chain: MAQSTATSPDGGTTFEHLWSSLEPDSTYFDLPQSSRGNNEVVGGTDSSMDVFHLEGMTTSVMAQFNLLSSTMDQMSSRAASASPYTPEHAASVPTHSPYAQPSSTFDTMSPAPVIPSNTDYPGPHHFEVTFQQSSTAKSATWTYSPLLKKLYCQIAKTCPIQIKVSTPPPPGTAIRAMPVYKKAEHVTDVVKRCPNHELGRDFNEGQSAPASHLIRVEGNNLSQYVDDPVTGRQSVVVPYEPPQVGTEFTTILYNFMCNSSCVGGMNRRPILIIITLEMRDGQVLGRRSFEGRICACPGRDRKADEDHYREQQALNESSAKNGAASKRAFKQSPPAVPALGAGVKKRRHGDEDTYYLQVRGRENFEILMKLKESLELMELVPQPLVDSYRQQQQLLQRPSHLQPPSYGPVLSPMNKVHGGMNKLPSVNQLVGQPPPHSSAATPNLGPVGPGMLNNHGHAVPANGEMSSSHSAQSMVSGSHCTPPPPYHADPSLVSFLTGLGCPNCIEYFTSQGLQSIYHLQNLTIEDLGALKIPEQYRMTIWRGLQDLKQGHDYSTAQQLLRSSNAATISIGGSGELQRQRVMEAVHFRVRHTITIPNRGGPGGGPDEWADFGFDLPDCKARKQPIKEEFTEAEIH
binding [3]: binds

B4: Restin (endogenous) (protein, UniProt Q9H213 1-219)
chain: MPRGRKSRRRRNARAAEENRNNRKIQASEASETPMAASVVASTPEDDLSGPEEDPSTPEEASTTPEEASSTAQAQKPSVPRSNFQGTKKSLLMSILALIFIMGNSAKEALVWKVLGKLGMQPGRQHSIFGDPKKIVTEEFVRRGYLIYKPVPRSSPVEYEFFWGPRAHVESSKLKVMHFVARVRNRCSKDWPCNYDWDSDDDAEVEAILNSGARGYSAP
binding [4]: no binding
